# In the supplement of paper PMC8007513:
# Some of the results follow. Many values rest on one well or one pass, so single values are uncertain.
# Test system: Saccharomyces cerevisiae BY4743
# Assay: growth (OD600) relative to untreated control; higher = less growth inhibition
# Details: compound concentration: 133 uM; 20 h
# Description: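 NMCCC compounds (133 uM, no IPBC) tested alone against Saccharomyces cerevisiae BY4743 in YPD, 96-well plates, starting OD600 ~0.1. Growth was read as OD600 at 20 h and expressed as % of the untreated control. Single pass.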
row,Compound,growth
1,CCOC(=O)Nc1ccc(C(=O)Nc2ccc(N3CCOCC3)nc2)cc1,98.6%
2,Cc1nn(C)c(C)c1NS(=O)(=O)c1cccc(C#N)c1,104%
3,COCCN(CC(=O)Nc1cccc(C)c1C)C(=O)CCc1c[nH]c2ccccc12,117%
4,CCOc1cccc(OCC)c2c(C)[nH+]c(C)c1-2,72.3%
5,CCc1sc(C(=O)N(C)Cc2ccc3c(c2)OCO3)cc1C,98.5%
6,NS(=O)(=O)c1ccc(CCN2C(=O)NC(NC(=O)c3ccccc3)(C(F)(F)F)C2=O)cc1 (centres undefined),95.2%
7,CCOC(=O)CNC(=O)c1sc2nc(C)cc(C)c2c1NC(=O)Cc1ccccc1,96%
8,COc1ccc(C)cc1NC(=O)CC(C)(C(=O)O)c1ccccc1 (centres undefined),105%
9,CSc1nnc(-c2cccnc2)n1CCO,94.7%
10,Cc1ccc(C(C)NC(=O)c2ccnn2C)c(C)c1 (centres undefined),97.4%
11,Nc1nnc(SCc2nc(-c3cccc(C(F)(F)F)c3)no2)s1,101%
12,COC(=O)C1C\C(=N/O1)C2=C[N](C)N=C2C (centres undefined),102%
13,COC(=O)CN\1C(=O)C2=CC=CC=C2\N=C1SC(CC3=CC=C(C)C=C3)C#N (centres undefined),99%
14,CCn1c(O)nnc1SCc1csc(C)n1,103%
15,CC1=C(Cl)C=CC=C1NC(=O)C\C2=N\[S](=O)(=O)C3=CC=CC=C3N2,106%
16,Nc1nccnc1C(=O)OCc1cc2c(cc1Br)OCCO2,94%
17,CCOC(=O)C(=O)N1\N=C(/CC1(O)C(C)(C)C)C(F)(F)F (centres undefined),95.7%
18,Cc1ccccc1N(C)C(=O)c1cccc2c1SCCC2=O,103%
19,Cc1nn(C)c(C)c1CCC(=O)NCc1nnc2ccc(C(F)(F)F)cn12,96.5%
20,Cc1[nH]c2ccc(C(=O)N(C)Cc3ccc(Br)s3)cc2c1C,99.6%
21,Cc1ccc(-c2noc(CCCC(=O)Nc3nncs3)n2)cc1,86.5%
22,CS(=O)(=O)Nc1nc2ccc(NC(=O)COc3ccccc3)cc2s1,87.5%
23,CSc1nc(O)n2ncc(-c3ccc(F)cc3)c2n1,102%
24,CC(C)(C)NS(=O)(=O)c1ccc(C(=O)NCC(=O)N2CCc3ccccc32)cc1,102%

# Pulled by compound from above, two records:
row,Compound,growth
22,CS(=O)(=O)Nc1nc2ccc(NC(=O)COc3ccccc3)cc2s1,87.5%
19,Cc1nn(C)c(C)c1CCC(=O)NCc1nnc2ccc(C(F)(F)F)cn12,96.5%
